Results from article PMC9173640, “PI Kinase-EhGEF2-EhRho5 axis contributes to LPA stimulated macropinocytosis in Entamoeba histolytica” (PLoS Pathogens, 2022).

Sequences of proteins named here, by UniProt entry; tags and fusion partners are left off. A change or cut given only in a name is not applied to a line headed by its entry.
UniProt Q8C6B2: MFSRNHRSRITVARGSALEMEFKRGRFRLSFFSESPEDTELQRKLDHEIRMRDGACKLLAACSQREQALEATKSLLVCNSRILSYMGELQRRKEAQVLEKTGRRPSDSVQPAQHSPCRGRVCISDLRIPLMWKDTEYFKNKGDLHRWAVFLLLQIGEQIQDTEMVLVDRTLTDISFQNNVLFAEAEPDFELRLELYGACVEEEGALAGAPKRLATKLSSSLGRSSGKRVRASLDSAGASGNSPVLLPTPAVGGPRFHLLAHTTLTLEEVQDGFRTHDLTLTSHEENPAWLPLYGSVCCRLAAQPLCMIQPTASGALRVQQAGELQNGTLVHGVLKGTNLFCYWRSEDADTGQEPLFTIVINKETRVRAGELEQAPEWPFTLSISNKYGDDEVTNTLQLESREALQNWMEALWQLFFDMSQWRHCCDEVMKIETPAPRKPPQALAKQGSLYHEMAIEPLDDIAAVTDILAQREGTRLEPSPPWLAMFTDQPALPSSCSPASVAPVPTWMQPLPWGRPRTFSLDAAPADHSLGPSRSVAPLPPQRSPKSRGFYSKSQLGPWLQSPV
UniProt Q24817: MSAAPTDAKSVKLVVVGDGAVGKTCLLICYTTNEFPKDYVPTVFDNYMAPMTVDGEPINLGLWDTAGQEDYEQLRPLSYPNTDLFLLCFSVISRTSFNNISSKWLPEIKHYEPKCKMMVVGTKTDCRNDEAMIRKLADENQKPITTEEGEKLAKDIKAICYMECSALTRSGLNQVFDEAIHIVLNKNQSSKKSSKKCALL

Target: GST-RBD (Rho binding domain of mRhotekin) (not stated (printed as mRhotekin)) (UniProt Q8C6B2)
Assay: pull-down; 0.1 umole GST-RBD/GST-PBD bound to Sepharose beads incubated with 0.20 umole His-EhRho5 loaded with GMPPNP, 30 min, room temperature; blot with anti-His; both purified

Q: For His-EhRho5 (from UniProt Q24817), which binding is on record?
A: binds

Results are given in words; binding and its absence hold for the method and conditions named. Binding can be weak; no strength is given.
